According to the supplement of paper PMC10849652:
This is one part of the list.

Protein sequences, listed by entry. Tags and fused reporters are not part of them. Lines headed by an entry give the natural chain unless they say otherwise; changes in a name come on top.
UniProt Q6P1K1: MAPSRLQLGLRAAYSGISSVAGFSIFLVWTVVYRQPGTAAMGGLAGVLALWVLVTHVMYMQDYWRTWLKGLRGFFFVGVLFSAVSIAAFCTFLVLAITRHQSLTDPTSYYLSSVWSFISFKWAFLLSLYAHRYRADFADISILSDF
UniProt A1A5C7: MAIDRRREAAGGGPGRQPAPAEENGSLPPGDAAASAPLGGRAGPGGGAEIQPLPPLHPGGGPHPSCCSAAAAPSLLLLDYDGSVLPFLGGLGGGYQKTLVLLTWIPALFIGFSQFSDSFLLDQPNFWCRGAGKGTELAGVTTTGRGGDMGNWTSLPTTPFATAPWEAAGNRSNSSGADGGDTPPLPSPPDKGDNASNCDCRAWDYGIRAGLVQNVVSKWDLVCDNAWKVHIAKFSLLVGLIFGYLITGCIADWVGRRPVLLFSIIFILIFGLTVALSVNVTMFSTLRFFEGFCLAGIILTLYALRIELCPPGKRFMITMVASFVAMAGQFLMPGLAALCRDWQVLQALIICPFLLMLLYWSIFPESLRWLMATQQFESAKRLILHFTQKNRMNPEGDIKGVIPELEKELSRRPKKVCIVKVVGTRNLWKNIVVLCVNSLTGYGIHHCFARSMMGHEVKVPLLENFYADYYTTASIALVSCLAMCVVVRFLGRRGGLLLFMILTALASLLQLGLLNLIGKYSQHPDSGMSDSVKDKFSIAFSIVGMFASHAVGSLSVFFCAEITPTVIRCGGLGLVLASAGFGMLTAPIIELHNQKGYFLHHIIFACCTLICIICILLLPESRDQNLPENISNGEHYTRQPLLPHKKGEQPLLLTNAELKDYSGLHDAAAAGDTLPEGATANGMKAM
UniProt O95258: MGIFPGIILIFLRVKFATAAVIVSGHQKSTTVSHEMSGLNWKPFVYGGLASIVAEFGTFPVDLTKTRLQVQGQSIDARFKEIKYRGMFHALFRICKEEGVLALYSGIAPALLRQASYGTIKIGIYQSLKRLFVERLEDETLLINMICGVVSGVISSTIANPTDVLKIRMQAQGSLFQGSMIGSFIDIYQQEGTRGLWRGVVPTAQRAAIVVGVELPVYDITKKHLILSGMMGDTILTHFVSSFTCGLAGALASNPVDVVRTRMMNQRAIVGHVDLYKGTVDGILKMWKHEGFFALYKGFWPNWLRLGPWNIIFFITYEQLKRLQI
UniProt Q9HAB3: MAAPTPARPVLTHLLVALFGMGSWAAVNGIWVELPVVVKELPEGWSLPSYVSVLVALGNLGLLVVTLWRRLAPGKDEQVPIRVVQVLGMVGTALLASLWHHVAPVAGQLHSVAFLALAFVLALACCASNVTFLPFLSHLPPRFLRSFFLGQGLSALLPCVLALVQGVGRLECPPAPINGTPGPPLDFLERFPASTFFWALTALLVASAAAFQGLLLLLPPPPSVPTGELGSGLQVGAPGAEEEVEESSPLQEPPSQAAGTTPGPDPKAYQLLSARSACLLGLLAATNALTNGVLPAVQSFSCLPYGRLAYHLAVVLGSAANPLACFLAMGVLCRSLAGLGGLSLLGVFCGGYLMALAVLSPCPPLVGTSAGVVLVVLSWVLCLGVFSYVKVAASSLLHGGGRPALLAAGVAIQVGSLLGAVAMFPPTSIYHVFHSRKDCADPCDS
UniProt Q96K37: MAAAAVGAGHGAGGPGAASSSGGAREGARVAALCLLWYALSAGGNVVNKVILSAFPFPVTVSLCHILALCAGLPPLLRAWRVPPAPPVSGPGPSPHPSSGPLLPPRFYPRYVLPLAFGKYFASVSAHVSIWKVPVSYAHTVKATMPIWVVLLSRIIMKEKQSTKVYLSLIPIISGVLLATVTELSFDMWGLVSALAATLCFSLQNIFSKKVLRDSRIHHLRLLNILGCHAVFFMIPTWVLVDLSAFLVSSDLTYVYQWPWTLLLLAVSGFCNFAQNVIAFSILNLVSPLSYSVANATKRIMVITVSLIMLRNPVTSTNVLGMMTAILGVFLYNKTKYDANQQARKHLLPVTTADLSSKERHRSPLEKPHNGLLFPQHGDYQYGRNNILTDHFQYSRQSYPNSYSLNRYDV
UniProt Q9BRV3: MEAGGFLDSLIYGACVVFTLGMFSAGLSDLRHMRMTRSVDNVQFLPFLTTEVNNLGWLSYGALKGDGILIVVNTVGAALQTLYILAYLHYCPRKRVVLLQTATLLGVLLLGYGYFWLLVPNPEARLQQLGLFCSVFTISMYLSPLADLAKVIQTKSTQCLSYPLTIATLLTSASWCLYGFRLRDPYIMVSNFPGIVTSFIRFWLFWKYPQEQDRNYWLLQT
UniProt Q96A29: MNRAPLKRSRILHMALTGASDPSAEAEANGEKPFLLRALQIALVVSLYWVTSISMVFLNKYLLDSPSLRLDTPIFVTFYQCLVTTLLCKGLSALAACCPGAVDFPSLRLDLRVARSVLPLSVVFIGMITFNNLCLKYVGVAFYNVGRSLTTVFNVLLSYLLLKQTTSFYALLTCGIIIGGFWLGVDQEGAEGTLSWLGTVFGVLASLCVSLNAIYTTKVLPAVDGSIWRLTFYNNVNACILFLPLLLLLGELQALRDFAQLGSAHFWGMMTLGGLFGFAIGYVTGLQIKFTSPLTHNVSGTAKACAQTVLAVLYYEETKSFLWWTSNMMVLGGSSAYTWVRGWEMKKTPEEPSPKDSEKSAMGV
UniProt O15431: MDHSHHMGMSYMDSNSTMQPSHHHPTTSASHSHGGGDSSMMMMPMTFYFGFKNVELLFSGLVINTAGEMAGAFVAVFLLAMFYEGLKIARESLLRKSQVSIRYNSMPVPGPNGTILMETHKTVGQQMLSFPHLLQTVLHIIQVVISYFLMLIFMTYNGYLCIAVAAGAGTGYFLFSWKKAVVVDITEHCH
UniProt P50443: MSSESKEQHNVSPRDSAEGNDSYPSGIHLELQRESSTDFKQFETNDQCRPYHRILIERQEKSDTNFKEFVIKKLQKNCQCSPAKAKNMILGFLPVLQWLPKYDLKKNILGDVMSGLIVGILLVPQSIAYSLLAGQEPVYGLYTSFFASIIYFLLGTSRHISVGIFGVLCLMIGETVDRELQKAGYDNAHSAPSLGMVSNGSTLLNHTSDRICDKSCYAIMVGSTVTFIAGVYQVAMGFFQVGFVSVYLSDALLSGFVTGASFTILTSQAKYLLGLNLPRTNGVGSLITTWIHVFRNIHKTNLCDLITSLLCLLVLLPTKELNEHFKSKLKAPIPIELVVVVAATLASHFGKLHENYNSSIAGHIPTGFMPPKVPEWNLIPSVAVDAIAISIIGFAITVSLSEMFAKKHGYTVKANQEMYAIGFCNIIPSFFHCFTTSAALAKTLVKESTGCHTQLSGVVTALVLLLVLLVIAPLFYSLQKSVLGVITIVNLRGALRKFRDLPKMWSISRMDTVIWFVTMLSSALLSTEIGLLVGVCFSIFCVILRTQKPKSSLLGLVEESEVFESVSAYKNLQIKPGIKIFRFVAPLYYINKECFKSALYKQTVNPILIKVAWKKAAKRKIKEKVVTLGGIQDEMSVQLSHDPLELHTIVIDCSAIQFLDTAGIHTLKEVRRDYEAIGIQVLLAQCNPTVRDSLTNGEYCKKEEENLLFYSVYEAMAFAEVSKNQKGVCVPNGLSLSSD
UniProt Q9Y2P4: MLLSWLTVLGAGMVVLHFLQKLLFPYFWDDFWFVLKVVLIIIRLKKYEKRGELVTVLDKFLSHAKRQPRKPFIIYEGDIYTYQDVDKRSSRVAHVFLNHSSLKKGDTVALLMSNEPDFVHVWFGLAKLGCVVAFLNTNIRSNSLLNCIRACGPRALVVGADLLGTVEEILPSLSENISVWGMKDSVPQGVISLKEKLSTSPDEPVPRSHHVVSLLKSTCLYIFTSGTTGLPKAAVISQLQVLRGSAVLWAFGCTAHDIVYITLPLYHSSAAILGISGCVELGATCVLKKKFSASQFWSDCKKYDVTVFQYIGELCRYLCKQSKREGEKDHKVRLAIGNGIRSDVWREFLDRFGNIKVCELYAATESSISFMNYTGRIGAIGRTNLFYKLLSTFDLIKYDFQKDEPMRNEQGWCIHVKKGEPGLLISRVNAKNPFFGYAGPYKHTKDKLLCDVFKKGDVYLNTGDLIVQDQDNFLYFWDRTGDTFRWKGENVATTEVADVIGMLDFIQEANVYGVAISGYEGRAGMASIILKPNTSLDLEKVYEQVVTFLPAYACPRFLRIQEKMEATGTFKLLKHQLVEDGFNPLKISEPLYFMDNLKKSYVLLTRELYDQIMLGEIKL
UniProt P48751: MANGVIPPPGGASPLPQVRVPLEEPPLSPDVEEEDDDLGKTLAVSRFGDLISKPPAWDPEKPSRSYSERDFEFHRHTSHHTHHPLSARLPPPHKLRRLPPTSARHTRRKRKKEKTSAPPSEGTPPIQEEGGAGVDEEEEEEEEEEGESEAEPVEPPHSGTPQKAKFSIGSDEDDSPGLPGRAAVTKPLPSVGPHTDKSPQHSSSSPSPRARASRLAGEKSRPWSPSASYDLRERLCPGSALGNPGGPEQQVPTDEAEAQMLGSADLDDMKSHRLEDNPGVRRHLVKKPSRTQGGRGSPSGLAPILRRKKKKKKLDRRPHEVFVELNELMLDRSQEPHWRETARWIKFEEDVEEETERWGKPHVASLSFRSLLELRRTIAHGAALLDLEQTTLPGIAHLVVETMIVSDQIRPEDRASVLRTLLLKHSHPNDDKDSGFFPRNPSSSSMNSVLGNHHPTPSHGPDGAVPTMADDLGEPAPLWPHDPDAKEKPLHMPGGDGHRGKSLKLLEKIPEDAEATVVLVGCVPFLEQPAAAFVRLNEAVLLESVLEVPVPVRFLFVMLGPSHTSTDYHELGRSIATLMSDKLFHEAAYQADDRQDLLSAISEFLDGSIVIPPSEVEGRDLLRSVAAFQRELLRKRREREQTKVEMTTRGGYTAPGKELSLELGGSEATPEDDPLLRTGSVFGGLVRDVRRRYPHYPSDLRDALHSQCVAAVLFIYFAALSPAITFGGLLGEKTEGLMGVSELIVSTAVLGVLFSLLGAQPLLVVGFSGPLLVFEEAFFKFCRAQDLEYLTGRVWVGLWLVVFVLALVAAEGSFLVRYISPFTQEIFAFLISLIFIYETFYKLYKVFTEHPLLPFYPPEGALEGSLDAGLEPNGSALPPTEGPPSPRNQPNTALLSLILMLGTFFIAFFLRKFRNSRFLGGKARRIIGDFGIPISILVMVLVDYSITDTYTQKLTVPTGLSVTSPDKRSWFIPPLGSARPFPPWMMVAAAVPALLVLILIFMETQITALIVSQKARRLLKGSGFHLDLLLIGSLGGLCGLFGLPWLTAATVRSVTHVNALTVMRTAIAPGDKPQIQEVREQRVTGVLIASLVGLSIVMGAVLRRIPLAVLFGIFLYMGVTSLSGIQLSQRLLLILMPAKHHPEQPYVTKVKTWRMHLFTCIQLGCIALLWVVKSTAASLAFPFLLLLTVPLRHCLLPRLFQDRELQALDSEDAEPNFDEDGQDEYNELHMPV
UniProt Q7Z2H8: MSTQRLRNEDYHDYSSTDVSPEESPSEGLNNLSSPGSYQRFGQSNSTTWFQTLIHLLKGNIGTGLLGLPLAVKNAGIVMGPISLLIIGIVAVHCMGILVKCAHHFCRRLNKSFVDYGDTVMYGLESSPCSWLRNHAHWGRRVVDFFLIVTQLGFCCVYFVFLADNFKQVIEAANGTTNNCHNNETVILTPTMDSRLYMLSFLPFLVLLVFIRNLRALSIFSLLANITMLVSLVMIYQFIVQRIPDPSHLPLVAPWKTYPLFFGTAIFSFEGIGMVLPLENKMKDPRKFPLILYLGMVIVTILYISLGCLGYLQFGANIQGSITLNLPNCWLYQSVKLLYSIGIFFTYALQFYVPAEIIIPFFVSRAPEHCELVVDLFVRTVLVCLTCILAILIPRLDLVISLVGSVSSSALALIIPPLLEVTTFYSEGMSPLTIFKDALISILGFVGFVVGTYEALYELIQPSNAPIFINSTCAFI
UniProt Q695T7: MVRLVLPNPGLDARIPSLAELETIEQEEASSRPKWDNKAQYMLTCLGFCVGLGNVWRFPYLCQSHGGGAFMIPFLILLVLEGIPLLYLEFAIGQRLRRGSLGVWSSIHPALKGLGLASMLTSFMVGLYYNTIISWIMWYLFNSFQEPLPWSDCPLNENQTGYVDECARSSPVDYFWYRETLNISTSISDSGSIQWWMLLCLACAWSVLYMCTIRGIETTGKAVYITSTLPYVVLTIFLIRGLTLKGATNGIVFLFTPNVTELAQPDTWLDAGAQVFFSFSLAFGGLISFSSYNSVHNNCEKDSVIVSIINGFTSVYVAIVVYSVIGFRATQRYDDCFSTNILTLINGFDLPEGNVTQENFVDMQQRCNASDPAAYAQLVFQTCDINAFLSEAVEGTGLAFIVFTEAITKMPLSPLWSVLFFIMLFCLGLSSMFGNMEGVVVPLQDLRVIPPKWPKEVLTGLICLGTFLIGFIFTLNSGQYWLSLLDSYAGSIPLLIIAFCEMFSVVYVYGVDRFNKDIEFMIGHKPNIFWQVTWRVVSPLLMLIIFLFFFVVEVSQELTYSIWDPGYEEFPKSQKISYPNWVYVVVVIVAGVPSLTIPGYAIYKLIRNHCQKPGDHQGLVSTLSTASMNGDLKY

compound: O=C(CCCCCCNC(=O)c1cnc(N(c2ccccc2)c2ccccc2Cl)nc1)NO [citarinostat]; assay: log2 fold change, soluble protein after heating vs DMSO (PISA); higher = thermal stabilisation; K562 cells, 10 uM, 30 min; active = over 0.2 and 3.5 SD of the protein, either way, in both replicates (recomputed)
Outline: (§1)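 K562 cells at 2×10^6 cells/mL were treated for 30 min with 10 μM compound, and aliquots were heated for 3 min over 48°C-58°C before pooling. Extraction used PBS with 0.5% NP-40 at 4°C, and soluble protein was the supernatant after 21,000xg for 90 min, measured by TMTpro 16plex LC-MS/MS with channel sums equalised. Thermal stability values, relative to control samples and from duplicates, are log2 fold changes.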

log2 fold change, inactive:
SLC48A1 (UniProt Q6P1K1) 0.149
SLC22A23 (UniProt A1A5C7) 0.007
SLC25A14 isoform 3 (UniProt O95258) 0.203
SLC35C2 isoform 3 (UniProt Q9NQQ7) 0.046
SLC52A2 (UniProt Q9HAB3) 0.041
SLC35E1 (UniProt Q96K37) -0.264
SLC10A7 isoform 1 (UniProt Q0GE19) 0.015
SLC50A1 (UniProt Q9BRV3) 0.026
SLC1A3 (UniProt P43003) -0.096
SLC25A35 (UniProt Q3KQZ1) 0.091
SLC46A1 (UniProt Q96NT5) -0.061
SLC66A1 (UniProt Q6ZP29) -0.141
SLC15A4 (UniProt Q8N697) 0.026
SLC35C1 (UniProt Q96A29) -0.12
SLC31A1 (UniProt O15431) -0.029
SLC25A29 (UniProt Q8N8R3) -0.162
SLC3A2 (UniProt F5GZS6) -0.065

compound: O=C(O)c1ccc2c(c1)nc(Nc1cccc(Cl)c1)c1ccncc12 [silmitasertib]; assay: as above
Outline: as §1

log2 fold change, inactive:
SLC22A23 (UniProt A1A5C7) 0.083
SLC26A2 (UniProt P50443) 0.034
SLC27A6 (UniProt Q9Y2P4) -0.011
SLC10A3 (UniProt P09131) 0.204
SLC25A14 isoform 3 (UniProt O95258) 0.083
SLC52A2 (UniProt Q9HAB3) -0.013
SLC35E1 (UniProt Q96K37) 0
SLC10A7 isoform 1 (UniProt Q0GE19) -0.237
SLC50A1 (UniProt Q9BRV3) 0.012
SLC4A3 isoform 3 (UniProt P48751) 0.044
SLC66A2 (UniProt Q8N2U9) 0.11
SLC36A1 (UniProt Q7Z2H8) 0.06
SLC1A3 (UniProt P43003) -0.021
SLC41A1 (UniProt Q8IVJ1) 0.054
SLC6A19 (UniProt Q695T7) 0.028
SLC3A2 (UniProt F5H867) 0.02
SLC66A1 (UniProt Q6ZP29) 0.261
SLC15A4 (UniProt Q8N697) -0.028
SLC31A1 (UniProt O15431) -0.062
SLC3A2 (UniProt F5GZS6) 0.008
SLC66A3 (UniProt Q8N755) -0.06
SLC36A4 (UniProt Q6YBV0) -0.078
